Measurements as given in PubChem BioAssay AID2685 (National Center for Advancing Translational Sciences (NCATS), 2010).
The other results are listed elsewhere or left out. These are further read-outs of the screen, such as a control signal, another cell line or another target. No call is given for them. Most of these compounds were active or inconclusive in the main read-out, so they are no random draw. Potencies come from curve fits of mixed quality, noted in brackets.

Test: qHTS Assay for Lipid Storage Modulators in Drosophila S3 Cells;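 for cell number change: cells counted by Cell Tracker Red CMTPX staining in the red channel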
Settings: BODIPY lipid droplet fluorescence, 18-24 h; for cell number change: measured here: cell count max response, cells fed with added oleic acid
Method in brief: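 Drosophila S3 cells got compounds at several concentrations plus oleic acid (400 uM solution). Laser-scanning cytometry with 488 nm excitation read lipid droplets at 500-530 nm and cells at 575-640 nm. Percent activity was relative to 20 uM Triacsin C.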

[1] = measured here: cell number channel AC50, cells fed with added oleic acid
[2] = measured here: lipid fluorescence (Fed channel) AC50, cells fed with added oleic acid

Compound | cell number change | AC50 [1] | AC50 [2]
COC(=O)C1(C(=O)OC)Sc2ccccc2C1=O | -31.2% | 29.1 µM [falling, single point] | 29.1 µM [falling, single point]
COc1ccccc1-c1cc(-c2ccccc2)nc(SCC(=O)O)c1C#N | -11.1% | – | 20.6 µM [rising, partial curve, poor fit]
COc1ccccc1OCCNC(=O)c1cc(C2CC2)nc2c1cnn2C(C)C | -13.2% | – | 1.84 µM [falling, full curve]
O=C(CSc1nnc2scc(-c3ccccc3)n12)NCC1CCCO1 (stereo not given) | 5.87% | – | –
Cc1ccc(NC(=O)CSc2nc(C)c(C)c(C)n2)c([N+](=O)[O-])c1 | 30.6% | 4.61 µM [rising, partial curve] | 2.59 µM [rising, single point]
COCCNC(=S)N/N=C(\C)c1ccc(Cl)c(Cl)c1 | 3.91% | – | 6.51 µM [rising, single point]
O=C(CC(=O)N1CCN(c2ccccn2)CC1)Nc1ccc2nc3n(c(=O)c2c1)CCCCC3 | 43.3% | 25.9 µM [rising, single point] | 3.26 µM [rising, partial curve]
COc1cccc(C2=NOC(C(=O)NCc3cccs3)C2)c1 (stereo not given) | 22.2% | – | 18.4 µM [rising, partial curve, poor fit]
CCOc1ccccc1N/C=C(\C#N)c1nc2ccccc2n1C | 28.6% | – | 3.66 µM [rising, partial curve]
Cc1ccc(S(=O)(=O)NCCN2CCOCC2)s1 | -9.68% | 4.11 µM [rising, partial curve, poor fit] | 4.11 µM [rising, partial curve]
Cn1c(SCC(=O)O)nnc1-c1ccc2ncccc2c1 | 17.4% | 0.092 µM [falling, full curve, poor fit] | 6.51 µM [falling, single point]
CCOC(=O)C(NC(C)=O)(Nc1ccc(S(N)(=O)=O)cc1)C(F)(F)F (stereo not given) | – | 2.31 µM [falling, partial curve, poor fit] | –
CC(=O)c1ccc(S(=O)(=O)Oc2ccc(-c3ccc(C(=O)O)cc3)cc2)cc1 | 20.7% | – | 2.91 µM [rising, single point]
O=C(Nc1ccccc1)N1CCC(O)(c2cccc(C(F)(F)F)c2)CC1 | -26.1% | – | –
COc1ccc(C(=O)Nc2ccccc2)cc1NC(=O)c1cccs1 | -16.2% | – | 29.1 µM [falling, single point]
CCn1cc(C(=O)N2CCCC2)c(=O)c2cc(S(=O)(=O)N3CCOCC3)ccc21 | -80.3% | 29.1 µM [falling, single point] | –
CC(C)CC(C(=O)Nc1oc(-c2ccco2)c(-c2ccco2)c1C#N)N1C(=O)c2ccccc2C1=O (stereo not given) | -2.72% | – | 0.13 µM [falling, full curve, poor fit]
CNC(=O)NC(=O)COc1c(F)c(F)cc(F)c1F | -24.6% | 6.51 µM [rising, partial curve, poor fit] | 25.9 µM [falling, single point]
CC1(c2ccccc2)NC(=S)N2C1NC(=S)N2c1ccccc1 (stereo not given) | 52.8% | 7.31 µM [rising, partial curve] | 9.2 µM [rising, partial curve]

Retrieved by structure from above:
Compound | cell number change | AC50 [1] | AC50 [2]
CNC(=O)NC(=O)COc1c(F)c(F)cc(F)c1F | -24.6% | 6.51 µM [rising, partial curve, poor fit] | 25.9 µM [falling, single point]
CCOC(=O)C(NC(C)=O)(Nc1ccc(S(N)(=O)=O)cc1)C(F)(F)F (stereo not given) | – | 2.31 µM [falling, partial curve, poor fit] | –
Cn1c(SCC(=O)O)nnc1-c1ccc2ncccc2c1 | 17.4% | 0.092 µM [falling, full curve, poor fit] | 6.51 µM [falling, single point]

Next part.

Compound | cell number change | AC50 [1] | AC50 [2]
C/C(N)=C(/C#N)C(=O)COC(=O)CNS(=O)(=O)c1ccc(C)cc1 | -18.1% | 0.731 µM [falling, full curve, poor fit] | –
COC(=O)c1cc(NC(=O)/C=C/c2ccc3c(c2)OCO3)cc(C(=O)OC)c1 | -13.3% | – | 4.11 µM [falling, partial curve]
COC(=O)c1ccccc1-n1c(CCC(=O)O)ccc1-c1ccccc1 | -18.1% | – | –
COc1ccccc1-c1nc(-c2ccc(C)nc2OC)no1 | 68.6% | 0.517 µM [rising, full curve, poor fit] | 0.651 µM [rising, full curve]
S=c1[nH]nc(-c2ccc(Cl)cc2)n1CC1CCCO1 (stereo not given) | 2.52% | – | –
CC(C)C(=O)NC(=S)Nc1nnn(C)n1 | 41.9% | 16.4 µM [rising, partial curve, poor fit] | 29.1 µM [rising, single point]
Cc1cccc(C)c1NC(=O)CN(C)C(=O)c1ccccc1SCC(=O)N1CCCC1 | – | 0.82 µM [falling, single point] | –
O=C(O)Cc1ccc(NC(=S)Nc2ccc(Br)cc2Cl)cc1 | 17.2% | – | 7.31 µM [falling, single point]
CCOc1ccccc1NC(=O)CN1C(=O)COc2ccc(Cl)cc21 | 84.1% | 18.4 µM [rising, single point] | 18.4 µM [rising, single point]
CCOC(=O)c1cnc2ccc(OC)cc2c1Nc1ccc(N2CCN(C)CC2)cc1 | -19% | – | 8.2 µM [falling, partial curve]
COc1ccc(N(CC(=O)NC2CCCC2)C(=O)Cn2nnc(-c3ccc(OC)c(OC)c3)n2)c(OC)c1 | -14.3% | – | –
Cc1sc(-c2ccccn2)nc1OC(=O)c1ccc(F)cc1F | -14.1% | – | –
Cc1ccc(SCC(=O)n2nc(C)cc2C)cc1 | 102% | 18.4 µM [rising, single point] | 6.51 µM [falling, single point]
CC(C)C1N=C(c2ccc3c(c2)OCO3)CC(c2ccccc2O)N1 (stereo not given) | -14.8% | – | 0.731 µM [rising, full curve]
CCOC(=O)C1=C(C)NC(C)=C(C(=O)OCC)C1/C=C/c1ccccc1 | 25.7% | – | –
COc1ccc(Nc2nc(-c3ccc(OC)cc3)c(CCC(=O)O)s2)cc1 | 24% | – | 0.92 µM [falling, single point]
CCOCCCNCC(=O)NC1(C)C2CCC(C2)C1(C)C (stereo not given) | – | – | 29.1 µM [falling, single point]
Cc1cc(NC(=O)CCC(=O)N(c2ccc(F)cc2)C(C(=O)NC2CCCC2)c2ccccc2)no1 (stereo not given) | 7.39% | – | 29.1 µM [rising, single point]
